Strings that start with PEPTIDE1 are HELM notation: dots part the residues, brackets hold end groups and non-standard residues.
Test: general procedure: Boc solid-phase peptide synthesis; benzhydrylamine resin; DIC
Conditions: whole synthesis, scale 1.0 m moles

Substance: PEPTIDE1{[pGlu].H.W.S.Y.[Aib].L.R.P.G.[am]}$$$$V2.0
- crude mass: 0.95 g
